{
  "source": "patent US6497899B2",
  "about": "“Rapidly disintegrating and fast-dissolving solid dosage form” (Pfizer, Inc., priority 2000, dated 2002)",
  "assay": "Dissolution testing of medicated tablets, USP/NF method 711, apparatus 2 at 50 RPM, UV absorption",
  "type": "physicochemical",
  "conditions": "medicated steam extruded starch solid dosage form; dissolution media deionized H2O; apparatus 2, 50 RPM, 37 C",
  "protocol": "Dosage form dissolution is measured by the United States Pharmacopeia/National Formulary (USP/NF) method 711 (United States Pharmacopeia, Rockville, Md., USA) and is summarized below:\nThe assembly from Apparatus 1 is used except that a paddle formed from a blade and a shaft is used as the stirring element. The shaft is positioned so that its axis is not more than 2 mm at any point from the vertical axis of the vessel and rotates smoothly without significant wobble. The vertical center line of the blade passes through the axis of the shaft so that the bottom of the blade is flush with the bottom of the shaft. The distance of 25±2 mm between the blade and the inside bottom of the vessel is maintained during the test. The metallic or suitably inert, rigid blade and shaft comprise a single entity that may be coated with a suitable inert coating. The dosage unit is allowed to sink to the bottom of the vessel before rotation of the blade is started. A small, loose piece of nonreactive material such as not more than a few turns of wire helix may be attached to dosage units that would otherwise float. Other validated sinker devices may be used. […]\nThe stated volume of the dissolution medium (±1%) is placed in the vessel of the apparatus. The dissolution medium is equilibrated to 37±0.5°C., and the thermometer removed. One solid dosage form is placed in the apparatus, taking care to exclude air bubbles from the surface of the dosage-form unit and either apparatus is immediately operated at a rate of 50 rpm. The concentration of dissolved drug in dissolution medium is measured over time by ultraviolet spectrophotometer to calculate the dissolution rate.\nThe medicated tablets were dissolved according to USP/NF method 711 using apparatus 2 at 50 RPM. Levels of medicament released were determined by UV absorption. […] Dissolution rates were rapid with 61% of the drug releasing after 1 minute and 80% of the drug releasing after 5 minutes on average.",
  "data": [
    {"compound": "COc1cc2c(cc1OC)C(=O)C(CC1CCN(Cc3ccccc3)CC1)C2.Cl", "note": "(stereo not drawn) [Donepezil.HCl]", "values": [
      {"measurement": "1 minute release", "result": 84.9, "unit": "%"},
      {"measurement": "5 minute release", "result": 90.7, "unit": "%"},
      {"measurement": "60 minute release", "result": 98.2, "unit": "%"}
    ]}
  ]
}
